# Source: PubChem BioAssay (NCATS)
# Several values for one entry are separate records, joined by “and”; a condition that tells them apart may be missing. Identical values can stand only once. This is one part of the list. Shown are side measurements of this screen, not its main read-out; they come without a call. Compounds called inactive in the main read-out are mostly missing here.
# Assay: qHTS assay for small molecule agonists of retinoid X receptor alpha signaling (AID 588544)
# Conditions: HEK293T RXRa-UAS-bla, beta-lactamase reporter, 18 h; 530 nm emission
row,Compound,max response
1,CC(C)(C)c1cc(O)ccc1O,-47.4%
2,CC(=O)Oc1ccccc1C(=O)Nc1ncc([N+](=O)[O-])s1,57.3%
3,Nc1ccc(-c2ccc(N)c(O)c2)cc1O,-46.3%
4,CC(COc1ccc(Oc2ccccc2)cc1)Oc1ccccn1 (stereo not given),2.78% and 11.9%
5,Fc1ccc(Oc2ccnc3cc(Cl)cc(Cl)c23)cc1,-31.2%
6,Oc1ccc(Cl)cc1Sc1cc(Cl)ccc1O,20.9%
7,CCOP(=O)(OCC)Oc1nc(Cl)c(Cl)cc1Cl,23.9%
8,Clc1ccc(COC(Cn2ccnc2)c2ccc(Cl)cc2Cl)cc1 (stereo not given),-25.4%
9,CC1(c2ccc(Oc3ccccc3)cc2)OC(=O)N(Nc2ccccc2)C1=O (stereo not given),31.7%
10,Clc1ccc(C(c2ccc(Cl)cc2)C(Cl)Cl)cc1,-5.46%
11,CC[C@H](C)[C@H]1O[C@]2(C=C[C@@H]1C)C[C@@H]1C[C@@H](C/C=C(\C)[C@@H](O[C@H]3C[C@H](OC)[C@@H](O[C@H]4C[C@H](OC)[C@@H](O)[C@H](C)O4)[C@H](C)O3)[C@@H](C)/C=C/C=C3\CO[C@@H]4[C@H](O)C(C)=C[C@@H](C(=O)O1)[C@]34O)O2,44.4%
12,COc1cnc(OC)n2nc(NS(=O)(=O)c3c(OCC(F)F)cccc3C(F)(F)F)nc12,-17.3%
13,CN1C[C@H](C(=O)N[C@]2(C)O[C@@]3(O)[C@@H]4CCCN4C(=O)[C@H](Cc4ccccc4)N3C2=O)C=C2c3cccc4[nH]cc(c34)C[C@H]21,-25%
14,c1ccc2c(c1)-c1cccc3c1c-2cc1ccccc13,136% and 64.8%
15,O=C(Nc1ccc(Cl)cc1)Nc1ccc(Cl)c(Cl)c1,6.57%
16,CC(C)OC(=O)C(O)(c1ccc(Br)cc1)c1ccc(Br)cc1,-5.78%
17,O=[N+]([O-])c1ccc(Cl)c([N+](=O)[O-])c1,-31.7%
18,CCOCn1c(-c2ccc(Cl)cc2)c(C#N)c(Br)c1C(F)(F)F,25.5%
19,CCOc1nc(NC)nc(NC(=O)NS(=O)(=O)c2ccccc2C(=O)OC)n1,-3.18%
20,CN(C)c1ccc(N=O)cc1,29%
21,CS(=O)(=O)c1cc(C(F)(F)F)ccc1C(=O)c1cnoc1C1CC1,4.83%
22,CC(C)(C)c1ccc(CSc2cnn(C(C)(C)C)c(=O)c2Cl)cc1,18.4%
23,Oc1c(Cl)c(Cl)c(Cl)c(Cl)c1Cl,19.7%
24,Cc1cc(O)c2c(c1)C(=O)c1cc(O)cc(O)c1C2=O,40.6%
25,O=[N+]([O-])c1cc(C(F)(F)F)c(Cl)c([N+](=O)[O-])c1Nc1ncc(C(F)(F)F)cc1Cl,-46%
